For one substance, binding results are on record in article doi:10.1101/2025.02.04.636487.

The chains behind the UniProt entries cited, without tags or fusion partners.
UniProt Q9NYF8: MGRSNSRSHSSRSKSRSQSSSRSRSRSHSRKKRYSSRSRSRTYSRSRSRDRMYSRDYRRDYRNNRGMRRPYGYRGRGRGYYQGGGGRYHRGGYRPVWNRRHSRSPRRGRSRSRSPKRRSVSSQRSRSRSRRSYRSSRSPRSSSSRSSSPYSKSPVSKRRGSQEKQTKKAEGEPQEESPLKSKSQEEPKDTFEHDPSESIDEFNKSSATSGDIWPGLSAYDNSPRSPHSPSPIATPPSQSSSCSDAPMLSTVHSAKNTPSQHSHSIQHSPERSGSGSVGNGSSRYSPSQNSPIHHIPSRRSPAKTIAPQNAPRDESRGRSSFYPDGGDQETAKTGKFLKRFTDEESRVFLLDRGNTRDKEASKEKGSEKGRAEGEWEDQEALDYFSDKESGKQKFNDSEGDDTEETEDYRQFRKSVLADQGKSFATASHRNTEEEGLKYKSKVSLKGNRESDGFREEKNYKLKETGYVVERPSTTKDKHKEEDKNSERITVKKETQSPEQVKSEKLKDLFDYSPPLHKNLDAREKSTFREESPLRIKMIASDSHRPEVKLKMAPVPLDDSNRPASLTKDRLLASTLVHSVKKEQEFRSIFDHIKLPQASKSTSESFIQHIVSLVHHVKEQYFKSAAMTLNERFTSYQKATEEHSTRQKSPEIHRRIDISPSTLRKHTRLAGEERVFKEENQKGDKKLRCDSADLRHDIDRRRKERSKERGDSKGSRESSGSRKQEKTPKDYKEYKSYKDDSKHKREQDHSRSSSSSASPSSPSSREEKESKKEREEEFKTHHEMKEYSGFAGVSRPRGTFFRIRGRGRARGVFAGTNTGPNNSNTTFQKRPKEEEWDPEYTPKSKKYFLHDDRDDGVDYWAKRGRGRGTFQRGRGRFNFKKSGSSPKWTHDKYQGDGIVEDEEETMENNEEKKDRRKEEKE

These are yes or no findings as the source states them, for the method shown. Binding seen in cells or lysates may run through a third protein. These calls come from enrichment with a bait or labelling near it, and not all partners need be listed. Where a sequence is shown, tags or fusion partners need not be part of it.

This experiment deals with T1, Flag-FERM-PTK2 (FERM domain of Protein Tyrosine Kinase 2) (UniProt Q05397).
T1 sequence: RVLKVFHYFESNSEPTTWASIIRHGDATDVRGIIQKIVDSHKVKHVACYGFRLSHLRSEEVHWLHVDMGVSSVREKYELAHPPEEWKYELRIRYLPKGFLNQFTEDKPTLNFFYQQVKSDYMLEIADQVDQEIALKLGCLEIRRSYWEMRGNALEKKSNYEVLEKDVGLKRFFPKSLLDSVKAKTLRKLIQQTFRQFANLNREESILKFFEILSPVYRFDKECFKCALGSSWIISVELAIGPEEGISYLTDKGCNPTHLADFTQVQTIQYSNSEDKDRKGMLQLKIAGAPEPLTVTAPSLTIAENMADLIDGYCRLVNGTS
Nature of the experiment: affinity purification with mass spectrometry.

Take “Bcl-2-associated transcription factor 1 (Bclaf1), endogenous in HEK-293T cells (from UniProt Q9NYF8 1-920)”: the binding entry is given as “binds”.
